Data taken from publication PMC11977240.
Where two headings read alike, the source gives them in different places. No constants are given. Whether binding was seen depends on the method and setting. In cells and extracts the contact can be indirect. Here binding means that the protein was enriched with, or labelled near, the bait; the list need not be complete. For some assays here: No binding means not detected with the bait. One block for each molecule: values may come before it.

By UniProt entry, the sequences of proteins in these tests, tags left out.
UniProt Q00839: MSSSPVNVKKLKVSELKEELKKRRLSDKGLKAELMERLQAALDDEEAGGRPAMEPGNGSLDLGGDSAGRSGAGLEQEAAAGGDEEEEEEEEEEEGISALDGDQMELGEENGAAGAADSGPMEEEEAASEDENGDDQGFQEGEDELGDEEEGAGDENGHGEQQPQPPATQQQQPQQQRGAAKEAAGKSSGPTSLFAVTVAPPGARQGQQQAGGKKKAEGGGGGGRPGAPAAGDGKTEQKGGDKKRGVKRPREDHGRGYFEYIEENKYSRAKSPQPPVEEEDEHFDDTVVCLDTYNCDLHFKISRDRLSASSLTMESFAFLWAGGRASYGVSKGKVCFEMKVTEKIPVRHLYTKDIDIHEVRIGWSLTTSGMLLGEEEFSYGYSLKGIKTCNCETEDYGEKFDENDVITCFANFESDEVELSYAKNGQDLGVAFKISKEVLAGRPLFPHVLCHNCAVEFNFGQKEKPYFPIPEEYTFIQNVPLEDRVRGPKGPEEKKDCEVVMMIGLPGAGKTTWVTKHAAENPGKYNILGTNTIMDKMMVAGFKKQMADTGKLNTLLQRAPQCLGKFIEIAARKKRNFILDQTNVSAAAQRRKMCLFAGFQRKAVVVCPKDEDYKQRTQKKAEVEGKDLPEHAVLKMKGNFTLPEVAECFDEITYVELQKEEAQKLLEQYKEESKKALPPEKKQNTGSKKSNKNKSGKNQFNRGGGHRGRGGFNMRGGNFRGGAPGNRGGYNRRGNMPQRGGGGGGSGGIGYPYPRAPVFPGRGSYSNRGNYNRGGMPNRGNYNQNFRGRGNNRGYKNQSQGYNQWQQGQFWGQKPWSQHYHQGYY
UniProt O00571: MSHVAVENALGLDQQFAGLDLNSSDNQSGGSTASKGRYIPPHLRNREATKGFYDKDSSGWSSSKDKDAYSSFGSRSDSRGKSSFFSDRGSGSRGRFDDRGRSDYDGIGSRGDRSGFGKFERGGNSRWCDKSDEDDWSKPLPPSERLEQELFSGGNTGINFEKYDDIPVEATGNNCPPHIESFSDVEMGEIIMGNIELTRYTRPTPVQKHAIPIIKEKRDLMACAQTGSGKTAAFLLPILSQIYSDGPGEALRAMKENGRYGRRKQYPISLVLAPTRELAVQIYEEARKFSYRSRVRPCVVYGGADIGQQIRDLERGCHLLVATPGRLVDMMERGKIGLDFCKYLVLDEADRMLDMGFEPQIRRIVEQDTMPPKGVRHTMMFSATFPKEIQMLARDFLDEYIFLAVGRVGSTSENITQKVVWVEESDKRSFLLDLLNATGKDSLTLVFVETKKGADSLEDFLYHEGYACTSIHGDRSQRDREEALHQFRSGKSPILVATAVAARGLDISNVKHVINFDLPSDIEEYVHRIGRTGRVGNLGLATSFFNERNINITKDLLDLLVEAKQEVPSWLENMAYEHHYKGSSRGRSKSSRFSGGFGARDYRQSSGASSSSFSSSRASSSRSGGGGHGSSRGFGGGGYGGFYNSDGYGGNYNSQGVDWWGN

Legend:
[1] = target: hnRNP U (human (endogenous in HCT116)) (UniProt Q00839); assay: affinity purification with mass spectrometry; IP with hnRNP U antibody (Santa Cruz sc-32315) on protein-sepharose beads from 600 µg HCT116 cytoplasmic extract digested with benzonase, overnight at 4 °C; IgG control; label-free HCD-MS/MS, SAINT score SP ≥ 0.8, four replicates
[2] = target: hnRNP U (human (endogenous in HCT116)) (UniProt Q00839); assay: as above; remark: listed apart in the source

binding [1]: binds
Molecule: DDX3X (from UniProt O00571 1-662)

binding [2]: no binding
B1: GRSF1 (protein, UniProt Q12849 118-480)
chain: SQESKTTYLEDLPPPPEYELAPSKLEEEVDDVFLIRAQGLPWSCTMEDVLNFFSDCRIRNGENGIHFLLNRDGKRRGDALIEMESEQDVQKALEKHRMYMGQRYVEVYEINNEDVDALMKSLQVKSSPVVNDGVVRLRGLPYSCNEKDIVDFFAGLNIVDITFVMDYRGRRKTGEAYVQFEEPEMANQALLKHREEIGNRYIEIFPSRRNEVRTHVGSYKGKKIASFPTAKYITEPEMVFEEHEVNEDIQPMTAFESEKEIELPKEVPEKLPEAADFGTTSSLHFVHMRGLPFQANAQDIINFFAPLKPVRITMEYSSSGKATGEADVHFETHEDAVAAMLKDRSHVHHRYIELFLNSCPKGK
